Test [1] has as its target wild type SMO (in 293T cells) (UniProt P56726). Briefly: pull-down.
Test [2] concerns the target SMO-HA (mouse Smoothened, C-terminally HA tagged) (mouse) (UniProt P56726). Briefly: co-IP.
In test [3] the target is HA-SMO (mouse Smoothened, N-terminally HA tagged) (mouse) (UniProt P56726). Briefly: co-IP.
Test [4] addresses SMO-HA (mouse Smoothened, C-terminally HA tagged) (mouse) (UniProt P56726). Briefly: co-IP. The source holds these as a separate data set.
Test [5] has the same target. Briefly: co-IP. The source holds these as a separate data set.
For test [6], the target named is HA-SMO (mouse Smoothened, N-terminally HA tagged) (mouse) (UniProt P56726). Briefly: co-IP. This is another data set of the same source.

Sequences of proteins named here, by UniProt entry; tags and fusion partners are left off. Residues count along the entry.
UniProt P56726, residues 33-793: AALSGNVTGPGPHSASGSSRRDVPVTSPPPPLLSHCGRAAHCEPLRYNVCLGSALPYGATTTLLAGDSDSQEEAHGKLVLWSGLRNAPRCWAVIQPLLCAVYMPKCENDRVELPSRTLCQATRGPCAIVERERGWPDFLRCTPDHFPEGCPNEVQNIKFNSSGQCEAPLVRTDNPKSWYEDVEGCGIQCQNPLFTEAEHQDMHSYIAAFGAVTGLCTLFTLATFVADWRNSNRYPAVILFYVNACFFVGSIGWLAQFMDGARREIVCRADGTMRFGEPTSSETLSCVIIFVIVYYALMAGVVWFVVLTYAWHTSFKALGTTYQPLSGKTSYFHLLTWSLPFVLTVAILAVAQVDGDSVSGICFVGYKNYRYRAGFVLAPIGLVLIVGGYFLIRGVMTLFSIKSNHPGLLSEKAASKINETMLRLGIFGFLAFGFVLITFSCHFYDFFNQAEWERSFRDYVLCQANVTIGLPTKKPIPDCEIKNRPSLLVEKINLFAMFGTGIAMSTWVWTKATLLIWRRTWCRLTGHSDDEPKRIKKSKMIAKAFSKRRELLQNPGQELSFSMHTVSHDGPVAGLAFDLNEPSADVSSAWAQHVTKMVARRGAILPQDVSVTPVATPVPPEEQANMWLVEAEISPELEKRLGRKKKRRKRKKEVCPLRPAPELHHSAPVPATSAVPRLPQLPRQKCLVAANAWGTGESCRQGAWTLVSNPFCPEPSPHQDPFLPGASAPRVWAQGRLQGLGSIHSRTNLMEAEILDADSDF
UniProt Q15363, residues 21-201: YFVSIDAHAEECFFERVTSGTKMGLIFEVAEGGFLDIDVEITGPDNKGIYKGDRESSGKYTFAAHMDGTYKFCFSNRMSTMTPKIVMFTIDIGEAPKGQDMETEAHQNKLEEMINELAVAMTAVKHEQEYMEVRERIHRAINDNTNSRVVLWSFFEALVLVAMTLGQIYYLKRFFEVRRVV
UniProt Q9R0Q3, residues 21-201: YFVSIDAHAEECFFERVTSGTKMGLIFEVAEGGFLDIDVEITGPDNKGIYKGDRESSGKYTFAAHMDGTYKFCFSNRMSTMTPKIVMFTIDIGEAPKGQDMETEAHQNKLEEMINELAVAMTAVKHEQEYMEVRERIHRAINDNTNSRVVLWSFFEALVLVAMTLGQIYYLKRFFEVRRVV

Binding data for three molecules are collected here from paper doi:10.1101/2020.04.20.049957.

Where two headings read alike, the source gives them in different places. No constants are given. Whether binding was seen depends on the method and setting. Binding seen in cells or lysates may run through a third protein. Some binding calls cover weakened binding; strength is not graded here.

In the case of “TMED2 (in 293T cells) (from UniProt Q15363 21-201)”, the binding entry in test [1] is given as “binds”.
With “TMED2 (endogenous, mouse ESCs and NPCs) (from UniProt Q9R0Q3 21-201)”, the binding result in test [2] is given as “binds weakly”; in test [3] it was “binds weakly”; in test [4], “binds”; in test [5], “binds”; in test [6] it was “binds”.

B1: TMED10 (endogenous, mouse ESCs) (protein, UniProt Q9D1D4 32-219)
chain: ISFHLPVNSRKCLREEIHKDLLVTGAYEITDQSGGAGGLRTHLKITDSAGHILYAKEDATKGKFAFTTEDYDMFEVCFESKGTGRIPDQLVILDMKHGVEAKNYEEIAKVEKLKPLEVELRRLEDLSESIVNDFAYMKKREEEMRDTNESTNTRVLYFSIFSMFCLIGLATWQVFYLRRFFKAKKLIE
B1: the binding entry in test [4] is listed as “no binding”.
